US20050261331A1, “Substituted pyrrolopyridines” (priority 2002, published 2005)
Some of these results come from one statement about several compounds together.

Target: T1, recombinant human Itk kinase domain fused with GST (Homo sapiens, UniProt Q08881)
T1 construct: recombinant human Itk kinase domain fused with GST; made in house; host or cells: High Five insect cells
T1 sequence (Q08881 363-615 limits assumed): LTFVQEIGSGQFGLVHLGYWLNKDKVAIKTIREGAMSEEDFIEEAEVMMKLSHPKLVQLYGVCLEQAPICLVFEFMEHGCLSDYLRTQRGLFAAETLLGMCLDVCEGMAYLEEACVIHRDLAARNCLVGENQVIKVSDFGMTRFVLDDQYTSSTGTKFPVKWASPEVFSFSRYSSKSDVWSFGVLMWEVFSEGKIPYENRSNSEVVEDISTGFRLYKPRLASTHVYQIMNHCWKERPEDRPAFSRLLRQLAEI
Experiment: Itk LANCE TRF Assay
Format: biochemical
Conditions: 160 ng/well Itk, 2 μM peptide substrate, 50 μM ATP, 50 minutes RT; statement for all Examples; read-out: IC50 values for inhibition of Itk activity
Experimental: The Itk kinase assay utilized recombinant human Itk kinase domain fused with GST (Glutathione S-Transferase). The protein was expressed in High five insect cells, purified in one step on an affinity chromatography glutathione column and stored in 50 mM Tris/HCl (pH 7.6), 150 mM NaCl, 5% (w/v) mannitol, 1 mM DTT, 30% glycerol at −70° C. The kinase substrate used in the assay was a biotinylated peptide derived from the Src-optimal substrate (Nair et al, J. Med. Chem., 38: 4276, 1995; biotin-AEEEIYGEFEAKKKK).
The assay additions were as follows: Test compounds (or controls; 1 μL in 100% DMSO) were added to black 96-well flat-bottomed plates (Greiner 655076) followed by 20 μL Itk in assay buffer and the reaction was started by adding 20 μL ATP and peptide substrate in assay buffer. The assay buffer constitution during phosphorylation was: 50 mM HEPES (pH 6.8), 10 mM MgCl2, 0.015% Brij 35, 1 mM DTT, 10% glycerol, 160 ng/well Itk, 2 μM peptide substrate and 50 μM ATP. The assay was stopped after 50 minutes (RT) by adding 150 μL ice-cold Stop solution (50 mM Tris/HCl, pH 7.5, 10 mM EDTA, 0.9% NaCl and 0.1% BSA) together with LANCE reagents (2 nM PT66-Eu^3+, Wallac AD0069 and 5 μg/ml Streptavidin-APC, Wallac AD0059. Both concentrations were final in stopped assay solution). The plates were measured on a Wallac 1420 Victor 2 instrument with TRF settings after 1 h incubation, and the ratio (665 signal/615 signal)*10000 was used to calculate the inhibition values. IC50 values were determined using XLfit.

IC50, < 25 µM:
COC(COc1ccc(-c2[nH]c3ncc(Cl)cc3c2-c2cncnc2)cc1)CN(C)C (stereo not shown) [Example 75, {3-[4-(5-Chloro-3-pyrimidin-5-yl-1H-pyrrolo[2,3-b]pyridin-2-yl)phenoxy]-2-methoxypropyl}dimethylamine]
CN1CCN(CCNc2ccc(-c3[nH]c4ncc(Cl)cc4c3-c3cncnc3)cc2)CC1 [Example 76, [4-(5-Chloro-3-pyrimidin-5-yl-1H-pyrrolo[2,3-b]pyridin-2-yl)phenyl][2-(4-methylpiperazin-1-yl)ethyl]amine]
Clc1cnc2[nH]c(-c3cn[nH]c3)c(-c3cccnc3)c2c1 [Example 77, 5-Chloro-2-(1H-pyrazol-4-yl)-3-pyridin-3-yl-1H-pyrrolo[2,3-b]pyridine]
CNc1c(Cl)cnc2[nH]c(-c3ccc(OCCCN(C)C)cc3)c(-c3cncnc3)c12 [Example 78, 5-Chloro-2-{4-[3-(dimethylamino)propoxy]phenyl}-N-methyl-3-pyrimidin-5-yl-1H-pyrrolo[2,3-b]pyridin-4-amine]
